Assay results taken from PubChem BioAssay AID2551 (National Center for Advancing Translational Sciences (NCATS), 2010).
Hit rate of the full screen: of about 310,000 compounds, about 17,000 (5.5%) were called active. Inconclusive means that the source gave no clear call. Such entries were picked first, then a sample of the others. Calls come from the whole dose curve; as a rule, active = well fitted inhibition curve with a large enough effect; inconclusive = small, poorly fitted or top-dose-only effect, or effect the other way; inactive = no such curve, though single readings can be large or run the other way. Where the call is inconclusive, the potency comes from a doubtful curve fit.

Amino acid sequences for entries named in this document (tags omitted). A change or cut given only in a name is not applied to a line headed by its entry.
UniProt P51450: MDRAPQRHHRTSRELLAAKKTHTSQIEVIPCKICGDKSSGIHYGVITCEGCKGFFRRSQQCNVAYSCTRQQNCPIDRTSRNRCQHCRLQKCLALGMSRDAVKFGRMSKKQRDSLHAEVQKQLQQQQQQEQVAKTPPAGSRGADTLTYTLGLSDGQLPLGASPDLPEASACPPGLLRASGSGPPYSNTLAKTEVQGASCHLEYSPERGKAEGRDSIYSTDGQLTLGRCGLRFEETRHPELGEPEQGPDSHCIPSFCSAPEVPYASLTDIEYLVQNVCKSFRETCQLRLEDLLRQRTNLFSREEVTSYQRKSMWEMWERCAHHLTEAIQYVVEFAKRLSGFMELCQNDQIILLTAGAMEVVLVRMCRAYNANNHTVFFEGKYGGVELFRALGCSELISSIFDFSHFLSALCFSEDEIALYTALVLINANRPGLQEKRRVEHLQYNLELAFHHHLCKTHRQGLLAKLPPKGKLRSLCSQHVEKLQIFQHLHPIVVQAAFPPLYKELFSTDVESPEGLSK

These compounds were tested against Nuclear receptor ROR-gamma (Mus musculus) (UniProt P51450) (assay: qHTS for inhibitors of ROR gamma transcriptional activity). Settings: Drosophila S2 Gal4-RORgamma UAS-luciferase reporter, 20 h; activity change, negative = inhibition: at 53.6 µM (top of the series).
In short: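 ROR gamma transcriptional activity was tracked as Gal4-UAS luciferase output in stably transfected Drosophila Schneider cells, with compound added 1 hr before 700 uM copper sulfate induction and a 20 hr ambient-temperature incubation.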
% is set by controls: 0 for no effect and ±100 for the full control effect; potency is the fitted concentration of half-maximal effect.
Note: nearly all actives have a fitted effect of over 60% in size.

SMILES	Potency	activity change, negative = inhibition
CN(C)CC1CCCCC1OC(=O)/C=C/c1ccc(Cl)cc1Cl (stereo unspecified)	inconclusive: 35.5 µM [inhibitor, single point]	–
c1ccc2c3c([nH]c2c1)C(C1CCCCC1)N(Cc1ncc[nH]1)CC3 (stereo unspecified)	inconclusive: 7.94 µM [inhibitor, partial curve, poor fit]	–
COc1ccccc1-n1cnc2cc(NCc3ccccc3O)ccc21	inactive	–
Cc1ccc(SC/C(O)=C(\C#N)c2nc3ccccc3n2C)cc1	active: 7.94 µM	–
Cc1ccc(-n2c(-c3nn(C)cc3Cl)n[nH]c2=S)cc1	inconclusive: 12.6 µM [inhibitor, single point]	–
Cc1ccccc1NC(=O)CSc1nc(N)c2c3c(sc2n1)CSC(C)(C)C3	inconclusive: 35.5 µM [activator, single point]	–
COc1ccc(/C=c2\s/c(=C/C(=O)c3ccc(C)cc3)[nH]c2=O)c(OC)c1	inconclusive: 31.6 µM [inhibitor, single point]	–
CCCOc1cccc(/C=N/NC(=O)c2csc(C)c2C)c1	inconclusive: 22.4 µM [inhibitor, single point]	–
O=C(NCc1ccccc1)N1CCC(Cc2ccccc2)CC1	inconclusive: 0.891 µM [inhibitor, full curve, poor fit]	–
c1ccc(-c2cc(NCCN3CCCCC3)c3ccccc3n2)cc1	inactive	–
O=C1CC(c2ccco2)CC(O)=C1C=Nc1cc(Cl)cc(Cl)c1 (stereo unspecified)	inactive	–
CC(=O)c1cccc(S(=O)(=O)N2CCC(c3nc4ccccc4[nH]3)CC2)c1	inconclusive: 12.6 µM [activator, single point]	–
C[C@@]12CCC=C[C@H]1[C@H](c1ccc(/C=C/c3ccccc3)cc1F)N(Cc1ccccc1)C2=O	inactive	–
CCC(=O)N(C)CCc1cc2c(c(OC)c1/C=N/Nc1ccc(C(=O)O)cc1)OCO2	inconclusive: 15.8 µM [inhibitor, partial curve, poor fit]	–
CSc1ccccc1NC(=O)c1cc(C2CC2)on1	inconclusive: 12.6 µM [inhibitor, single point]	–
CN1CCN(c2ccc(S(=O)(=O)Nc3ccccc3)cc2[N+](=O)[O-])CC1	inconclusive: 20 µM [activator, single point]	–
Cc1ccccc1C(=O)Nc1nnc(S(=O)(=O)N2CCCCCC2)s1	inconclusive: 15.8 µM [activator, partial curve]	–
O=C(CN1CCc2cc3c(cc2C1)OCCCO3)Nc1ccc(F)cc1	inconclusive: 35.5 µM [activator, single point]	–
COc1ccc(CC(=O)Nc2cccc(C)n2)cc1OC	inconclusive: 22.4 µM [activator, single point]	–
COc1ccccc1-n1cc(-c2ccc(Cl)cc2)[nH]c1=O	inactive	–
C=CCn1c(CSCc2ccccc2)nnc1SCC(=O)N1CCN(c2ccccc2)CC1	active: 28.2 µM	–
CC(O/N=C/c1ccccc1OC(F)F)C(=O)Nc1cccc(S(=O)(=O)N2CCOCC2)c1 (stereo unspecified)	inactive	–
Cc1nn(C)cc1C(=O)NNC(=S)Nc1ccccc1	inconclusive: 11.2 µM [inhibitor, single point]	–
NC(=S)N/N=C/c1cccc(Br)c1	active: 5.62 µM	–

SMILES	Potency	activity change, negative = inhibition
Clc1ccc(Oc2ncnc3oc(-c4ccccc4)cc23)cc1	inactive	–
O=C(CC1SC(=NCc2ccccc2)NC1=O)Nc1ccccc1 (stereo unspecified)	inconclusive: 35.5 µM [activator, single point]	–
C=CCn1c(CC(=O)Nc2cccc(OC)c2)nnc1SCC(=O)NC1CCCCC1	inconclusive: 31.6 µM [activator, single point]	–
O=C(Nc1ccc(S(=O)(=O)NCC2CCCO2)cc1)c1ccc(F)cc1 (stereo unspecified)	inconclusive: 2.24 µM [activator, full curve]	–
COc1cc(N2C(=O)NC3CC2(C)Oc2ccccc23)cc(OC)c1OC (stereo unspecified)	inactive	–
COc1ccc(N(CC(=O)NCCSCc2ccccc2Cl)S(C)(=O)=O)cc1Cl	inactive	–
CCCCC/C=C\C/C=C\C/C=C\C=C\C(O)CCCC(=O)O (stereo unspecified)	inactive	–
CN(Cc1ccccc1)Cc1nc2c(c(=O)n(C)c(=O)n2C)n1Cc1ccc(F)cc1	inconclusive: 22.4 µM [activator, single point]	–
O=C(O)c1ccc2c(c1)C(=O)N([C@]1(C(=O)O)C[C@H]1c1ccccc1)C2=O	inactive	–
C[C@@H](C(=O)O)c1ccc(C(=O)c2ccccc2)s1	–	inactive: 12.7% [at 2.98 µM]
Cc1cnc(CNc2nc(-c3ccccc3Cl)nc3ccccc23)cn1	inactive	–
O=C(Nc1cccc(F)c1)NC1CCCCCCC1	inconclusive: 12.6 µM [activator, partial curve]	–
O=S(=O)(Cc1ccccc1)N1CCCCCC1	inconclusive: 31.6 µM [activator, single point]	–
COC(=O)N1C(=O)[C@@](c2ccccc2)(C2CCCC2)N1C(=O)OC	active: 11.2 µM	–
Fc1ccc(COc2ccc(/C=N/n3cnnc3)cc2)cc1	inactive	–
O=C(CSc1nnc(-c2ccccc2)n1-c1ccc(Cl)cc1)NNC(=S)Nc1ccccc1	inconclusive: 10 µM [inhibitor, partial curve, poor fit]	–
COc1ccc(/C=C/C(=O)NCCn2c(C)cc3ccccc32)cc1OC	inconclusive: 10 µM [activator, partial curve, poor fit]	–
CCN(Cc1ccccc1)C(c1ccc(Cl)cc1)c1nnnn1C(C)(C)C (stereo unspecified)	inconclusive: 28.2 µM [inhibitor, single point]	–
O=C(OCC(=O)N1CCCCCC1)c1ccc([N+](=O)[O-])cc1Cl	inactive	–
COc1ccc(CCNC(=O)COc2ccc(S(=O)(=O)NC3CCCCC3)cc2Cl)cc1	inconclusive: 15.8 µM [activator, single point]	–
C=CCNC(=S)N(CC=C)C1CCS(=O)(=O)C1 (stereo unspecified)	inactive	–
O=C(CCOc1ccccc1)Nc1ccnn1C1CCN(CCc2ccccc2)CC1	inactive	–
O=S(=O)(Nc1ccc(S(=O)(=O)Nc2ccccc2)cc1)c1ccccc1	inconclusive: 35.5 µM [activator, single point]	–

Single records, from the list above:
O=C(CCOc1ccccc1)Nc1ccnn1C1CCN(CCc2ccccc2)CC1 in the list: Potency: inactive
COc1ccc(CCNC(=O)COc2ccc(S(=O)(=O)NC3CCCCC3)cc2Cl)cc1 in the list: Potency: inconclusive: 15.8 µM [activator, single point]
Cc1cnc(CNc2nc(-c3ccccc3Cl)nc3ccccc23)cn1 in the list: Potency: inactive
CN(Cc1ccccc1)Cc1nc2c(c(=O)n(C)c(=O)n2C)n1Cc1ccc(F)cc1 in the list: Potency: inconclusive: 22.4 µM [activator, single point]

Carrying on:

SMILES	Potency	activity change, negative = inhibition
Cc1nn2c3ccccc3nc2c2ccccc12	inconclusive: 35.5 µM [inhibitor, single point]	–
CCOc1ccc(C(C)=O)cc1CN1C(=O)NC2(CCCCCC2)C1=O	inconclusive: 1.58 µM [activator, single point]	–
CCOC(=O)C1CCN(S(=O)(=O)c2ccc3c(c2)NC(=O)C(C)C(=O)N3)CC1 (stereo unspecified)	inactive	–
N#CCCN(Cc1cccnc1)C(=S)NC(=O)C1CC1	inconclusive: 14.1 µM [inhibitor, partial curve]	–
Cc1ccc(-c2nn(-c3ccccc3)c3[nH]c(=O)c(CNCc4ccccc4)cc23)cc1	inconclusive: 1 µM [inhibitor, full curve, poor fit]	–
CC(C)[C@H](NS(=O)(=O)c1ccccc1)C(=O)OCn1nnc2ccccc2c1=O	inactive	–
O=C1CCCCCN1Cc1nnc(SCc2nc3ccccc3s2)n1-c1ccccn1	active: 2.51 µM	–
CCN(CC)C(=O)Oc1ccc(Cl)c2cccnc12	inactive	–
COc1ccccc1CNC(=O)c1oc2ccccc2c1C	inactive	–
O=C(/C=C(\O)c1ccccc1)C(=O)NNC(=O)c1ccccc1	inconclusive: 15.8 µM [inhibitor, single point]	–
Cc1cc(NC(=O)C2CCCC2)n(-c2nc3ccccc3[nH]2)n1	active: 0.631 µM	–
CCOn1c(SCC)nc2ccccc2c1=O	inconclusive: 22.4 µM [activator, single point]	–
CN1/C(=C\C(=O)COC(=O)c2ccc(O)c(O)c2)C(C)(C)c2ccccc21	inconclusive: 25.1 µM [inhibitor, single point]	–
CCC(=O)Nc1cccc(NC(=O)c2ccc3c(c2)OCO3)c1	inconclusive: 7.94 µM [activator, partial curve, poor fit]	–
O=C(NCc1ccco1)/C(=C\c1ccco1)NC(=O)c1ccccc1Cl	inactive	–
Cc1nc(Nc2ccc3c(c2)OCO3)c2oc3ccccc3c2n1	inconclusive: 3.55 µM [inhibitor, single point]	–
CCN(CC)CCNC(=O)C1c2cc(OC)c(OC)cc2C(=O)N(C)C1c1cccs1 (stereo unspecified)	inactive	–
CC1=Cc2ccccc2C(C#N)N1C(=O)c1ccccc1 (stereo unspecified)	inconclusive: 14.1 µM [activator, partial curve]	–
COc1ccc(C(=O)/C=C/c2ccc(N3CCCCC3)c([N+](=O)[O-])c2)c(OC)c1	inconclusive: 15.8 µM [activator, single point]	–
Cc1cc(C)cc(-n2ccnc2SCC(=O)Nc2nccs2)c1	inconclusive: 22.4 µM [inhibitor, single point]	–
Clc1nc(Nc2ccc(N3CCOCC3)cc2)c2ccccc2n1	inconclusive: 10 µM [activator, partial curve]	–
Cc1ccc2c(CC(=O)N3CCN(c4ccccc4)CC3)coc2c1	inconclusive: 35.5 µM [inhibitor, single point]	–
CC(NC(=O)c1cc(COc2c(F)cccc2F)on1)c1cnn(-c2ccccc2)c1 (stereo unspecified)	inconclusive: 10 µM [activator, partial curve]	–

3 compounds already listed, arranged by molar mass, low to high.
SMILES	Potency	activity change, negative = inhibition
Cc1nn2c3ccccc3nc2c2ccccc12	inconclusive: 35.5 µM [inhibitor, single point]	–
CCC(=O)Nc1cccc(NC(=O)c2ccc3c(c2)OCO3)c1	inconclusive: 7.94 µM [activator, partial curve, poor fit]	–
COc1ccc(C(=O)/C=C/c2ccc(N3CCCCC3)c([N+](=O)[O-])c2)c(OC)c1	inconclusive: 15.8 µM [activator, single point]	–
